Results are given in words; binding and its absence hold for the method and conditions named. A result given as binding can be weak or reduced; the word gives no strength.
Molecular target: NtGEF12a (Nicotiana tabacum (tobacco))
Assay: two-hybrid

- binding: binds
Substance: NtRAC5 (from UniProt Q9S820)

— paper doi:10.1101/2024.04.08.588543
